The text below walks through data of the supplement of paper PMC10849652.

The other results are listed elsewhere or left out.

Compound in the first assay: C#Cc1cccc(Nc2ncnc3cc(OCCOC)c(OCCOC)cc23)c1 [erlotinib]
Put plainly: log2 fold change, soluble protein after heating vs DMSO (PISA); higher = thermal stabilisation; K562 cells, 10 uM, 30 min; active = over 0.2 and 3.5 SD of the protein, either way, in both replicates (recomputed). Put shortly:
(§1)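 For each measurement, 10 μM compound was applied for 30 min to K562 cells at 2×10^6 cells/mL. Aliquots were heated for 3 min across 48°C-58°C, pooled, and extracted in PBS with 0.5% NP-40 at 4°C; the supernatant after 21,000xg for 90 min was soluble protein. This was quantified by TMTpro 16plex LC-MS/MS with channel sums equalised, and thermal stability was reported relative to control samples from duplicates, on a log2 fold-change scale.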
As for PRNP (UniProt P04156), the log2 fold change is inactive: -0.049.

Take PPP2R5C isoform 2 (UniProt Q13362): the log2 fold change is inactive: -0.012.

Consider PRKX (UniProt P51817), for which the log2 fold change was inactive: 0.169.

As for PPP1R3D (UniProt O95685), the log2 fold change was inactive: 0.145.

With PPP1R12B isoform 6 (UniProt O60237), the log2 fold change was inactive: 0.226.

With PRR16 (UniProt Q569H4), the log2 fold change was inactive: -0.182.

In the case of PPP2CB (UniProt E5RHC1), the log2 fold change was inactive: 0.027.

For PROSER3 (UniProt Q2NL68), the log2 fold change is inactive: -0.196.

On to PRR12 (UniProt Q9ULL5), for which the log2 fold change was inactive: 0.072.

Compound in another assay: C/C(=N\NC(=O)C1=CC(=CC=C1)S(=O)(=O)N2CCOCC2)/C3=C(C=CC(=C3)Cl)O
The assay is described as above. The method, boiled down:
as §1
Take PRKRA (UniProt O75569): the log2 fold change was inactive: -0.076.

In the case of PRR4 (UniProt Q16378), the log2 fold change is inactive: -0.099.

As to PRDM2 (UniProt Q13029), the log2 fold change is inactive: -0.09.

In the case of PRC1 (UniProt O43663), the log2 fold change was inactive: 0.107.

On to PRIMPOL (UniProt Q96LW4), for which the log2 fold change was inactive: -0.171.

PROSER3, A0A2R8Y8D9: the log2 fold change is inactive: -0.071.

PPP2R3B (UniProt Q9Y5P8): the log2 fold change was inactive: -0.006.

PRR14L (UniProt Q5THK1): the log2 fold change is inactive: -0.168.

Consider PPP2R2A, A0A590UJJ1, for which the log2 fold change was inactive: -0.38.

Compound in another assay: C1=CC(=C(C=C1Cl)C2=NC3=NC=CN=C3C(=N2)NC4=CC=NC=C4)F
The assay is described as above. The method, boiled down: as §1
As to PRKRA (UniProt O75569), the log2 fold change was inactive: -0.307.

Turning to PPP1R9A isoform 3 (UniProt Q9ULJ8), the log2 fold change was inactive: -0.103.

For PRKD2 (UniProt M0R346), the log2 fold change was inactive: -0.066.

On to PRDM2 (UniProt Q13029), for which the log2 fold change was inactive: -0.109.

With PRR3 (UniProt P79522), the log2 fold change was inactive: -0.334.

In the case of PROSER3, A0A2R8Y8D9, the log2 fold change was inactive: 0.216.

As for PPP1R13L (UniProt Q8WUF5), the log2 fold change is inactive: -0.136.

In the case of PPP2R3B (UniProt Q9Y5P8), the log2 fold change is inactive: 0.083.

For PPTC7 (UniProt Q8NI37), the log2 fold change was inactive: -0.026.

On to PRADC1 (UniProt Q9BSG0), for which the log2 fold change was inactive: 0.096.

Compound in another assay: C1=CC(=CC=C1C2=NC3=C(N2)C=C(C=C3)C(=O)N)OC4=CC=C(C=C4)Cl
The assay is described as above. The method, boiled down:
as §1
PRNP (UniProt P04156): the log2 fold change is inactive: 0.098.

As for PPP2R5C isoform 2 (UniProt Q13362), the log2 fold change was inactive: -0.02.

In the case of PRKX (UniProt P51817), the log2 fold change was inactive: 0.035.

Regarding PPP1R3D (UniProt O95685), the log2 fold change was inactive: -0.097.

As for PPP1R12B isoform 6 (UniProt O60237), the log2 fold change is inactive: 0.001.

Turning to PRR16 (UniProt Q569H4), the log2 fold change is inactive: 0.02.

For the target PPP2CB (UniProt E5RHC1), the log2 fold change was inactive: -0.035.

For the target PROSER3 (UniProt Q2NL68), the log2 fold change is inactive: 0.236.

In the case of PRR12 (UniProt Q9ULL5), the log2 fold change was inactive: 0.114.

Compound in a further assay: C1=CC2=C(C=CC(=C2)/C=C\3/C(=O)NC(=NCC4=CC=CS4)S3)N=C1
Described as above. The method, boiled down: as §1
On to PRKRA (UniProt O75569), for which the log2 fold change was inactive: 0.012.

In the case of PRR4 (UniProt Q16378), the log2 fold change was inactive: 0.138.

As to PRDM2 (UniProt Q13029), the log2 fold change is inactive: 0.058.

Turning to PRC1 (UniProt O43663), the log2 fold change was inactive: -0.159.

Turning to PRIMPOL (UniProt Q96LW4), the log2 fold change is inactive: -0.092.

On to PROSER3, A0A2R8Y8D9, for which the log2 fold change is inactive: -0.22.

Regarding PPP2R3B (UniProt Q9Y5P8), the log2 fold change was inactive: -0.065.

PRR14L (UniProt Q5THK1): the log2 fold change is inactive: 0.16.

Consider PPP2R2A, A0A590UJJ1, for which the log2 fold change is inactive: 0.289.

Compound in a further assay: C1=CC2=NC=CN=C2C=C1/C=C/3\C(=O)NC(=O)S3
Described as above. The method, boiled down: as §1
Regarding PRNP (UniProt P04156), the log2 fold change was inactive: 0.109.

For the target PRKRA (UniProt O75569), the log2 fold change was inactive: 0.033.

As for PPP1R9A isoform 3 (UniProt Q9ULJ8), the log2 fold change is inactive: 0.098.

Consider PPP2R5C isoform 2 (UniProt Q13362), for which the log2 fold change is inactive: -0.011.

On to PRR4 (UniProt Q16378), for which the log2 fold change was inactive: -0.092.

On to PRKD2 (UniProt M0R346), for which the log2 fold change is inactive: -0.032.

Take PPP2R1B (UniProt H0YDG7): the log2 fold change is inactive: -0.428.

On to PRKX (UniProt P51817), for which the log2 fold change is inactive: 0.

For PPP1R3D (UniProt O95685), the log2 fold change is inactive: -0.075.

As to PPP1R12B isoform 6 (UniProt O60237), the log2 fold change is inactive: -0.081.

For PPP1R13L (UniProt Q8WUF5), the log2 fold change was inactive: 0.083.

Take PROSER3 (UniProt Q2NL68): the log2 fold change is inactive: -0.054.

Turning to PPP1CC (UniProt F8W1A0), the log2 fold change was inactive: 0.088.

Compound in another assay: C1=CC=C(C=C1)C2=NC(=C(N2)C3=CC=NC=C3)C4=CC(=C(C=C4)Cl)O
The description is as above. Put shortly: as §1
For the target PRKRA (UniProt O75569), the log2 fold change was inactive: -0.134.

For the target PPP1R9A isoform 3 (UniProt Q9ULJ8), the log2 fold change is inactive: 0.137.

As to PPP2R5C isoform 2 (UniProt Q13362), the log2 fold change was inactive: -0.039.

As for PRR4 (UniProt Q16378), the log2 fold change is inactive: -0.004.

For the target PRDM2 (UniProt Q13029), the log2 fold change is inactive: -0.063.

Regarding PPP1R3D (UniProt O95685), the log2 fold change is inactive: 0.036.

PROSER1 (UniProt Q86XN7): the log2 fold change is inactive: -0.112.

For the target PPP1R16A (UniProt Q96I34), the log2 fold change is inactive: 0.092.

With PRRG1 (UniProt O14668), the log2 fold change is inactive: 0.041.
